# Results deposited as PubChem BioAssay AID1224831 (NIAID, 2016).
# Screen: 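Retesting screen hits on the TLR4-driven TNF response with six separate siRNAs each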 (follow-up of hits)
# System: human THP-1 B5 monocytic leukaemia cells carrying a TNF promoter luciferase reporter, made macrophage-like with PMA
# Reagent: single siRNA against human genes, 50 nM
# Duration: about 68 h of knock-down, then 4 h LPS
# Conditions: LPS (Salmonella minnesota, TLR-grade) at 10 ng/ml for 4 h; PMA 5 ng/ml present during knock-down
# Read-out: 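Firefly to renilla luciferase ratio of a TNF promoter reporter after 4 h LPS, scaled to plate median, turned into robust z-score, averaged over replicates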
# Scale: TNF reporter z-score: higher = stronger LPS-induced TNF reporter signal; z-score, median over gene's siRNAs: higher = stronger TNF reporter signal across the gene's siRNAs
# Hit rule: 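Two-sided call: reduced or raised TNF reporter signal counts as active once mean z reaches about -1 or below, or about 1.5 or above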
# Meaning of the calls: active = changed TNF reporter (either direction); inactive = little change
# Here is one part, drawn at random, of about 3,500 reagents. Over the whole deposit, 731 (21%) got an active call. 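Active means either lowered or raised reporter signal; the gene-median score did not drive the per-siRNA calls.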
target gene,PubChem SID,"TNF reporter z-score, replicate mean","z-score, median over gene's siRNAs",call
RNASE10,SID315489045,0.34,0.13,inactive
RNASE10,SID315489046,-0.08,0.13,inactive
RNASE10,SID315489047,-0.28,0.13,inactive
RNASE10,SID315489048,-0.65,0.13,inactive
RNASE10,SID315489049,2.1,0.13,active
RNASE10,SID315489050,0.94,0.13,inactive
IPO13,SID315483348,-0.2,1.66,inactive
IPO13,SID315483349,2.35,1.66,active
IPO13,SID315483350,1.83,1.66,active
IPO13,SID315483351,1.49,1.66,inactive
IPO13,SID315483352,-0.64,1.66,inactive
IPO13,SID315483353,2.17,1.66,active
WDR31,SID315487608,-0.2,0.08,inactive
WDR31,SID315487609,0.36,0.08,inactive
WDR31,SID315487610,-2.47,0.08,active
WDR31,SID315487611,0.5,0.08,inactive
WDR31,SID315487612,-1.03,0.08,active
WDR31,SID315487613,0.8,0.08,inactive
PSMD2,SID315482808,-1.23,-1.1,active
PSMD2,SID315482809,-1.21,-1.1,active
PSMD2,SID315482810,-1.02,-1.1,active
PSMD2,SID315482811,-1.19,-1.1,active
PSMD2,SID315482812,-0.65,-1.1,inactive
PSMD2,SID315482813,-0.79,-1.1,inactive
MED10,SID315487161,-0.28,-0.485,inactive
MED10,SID315487162,-0.69,-0.485,inactive
MED10,SID315487163,0.95,-0.485,inactive
MED10,SID315487164,-0.69,-0.485,inactive
MED10,SID315487165,-1.2,-0.485,active
MED10,SID315487166,1.58,-0.485,active
DNASE1,SID315482262,-1.41,-0.43,active
DNASE1,SID315482263,-0.45,-0.43,inactive
DNASE1,SID315482264,0.63,-0.43,inactive
DNASE1,SID315482265,-0.41,-0.43,inactive
DNASE1,SID315482266,-0.81,-0.43,inactive
DNASE1,SID315482267,0.02,-0.43,inactive
UNC5A,SID315487239,-2.3,-0.365,active
UNC5A,SID315487240,-0.73,-0.365,inactive
UNC5A,SID315487241,0.02,-0.365,inactive
UNC5A,SID315487242,-0.54,-0.365,inactive
UNC5A,SID315487243,-0.19,-0.365,inactive
UNC5A,SID315487244,0.01,-0.365,inactive
SYT1,SID315482946,-0.84,0.245,inactive
SYT1,SID315482947,0.21,0.245,inactive
SYT1,SID315482948,0.28,0.245,inactive
SYT1,SID315482949,-0.25,0.245,inactive
SYT1,SID315482950,0.96,0.245,inactive
SYT1,SID315482951,0.54,0.245,inactive
ZBTB40,SID315483378,-1.08,-0.28,active
ZBTB40,SID315483379,-1.6,-0.28,active
ZBTB40,SID315483380,0.77,-0.28,inactive
ZBTB40,SID315483381,-0.24,-0.28,inactive
ZBTB40,SID315483382,1.18,-0.28,inactive
ZBTB40,SID315483383,-0.32,-0.28,inactive
APPL1,SID315485271,-1.28,-0.225,active
APPL1,SID315485272,0.31,-0.225,inactive
APPL1,SID315485273,-0.36,-0.225,inactive
APPL1,SID315485274,-1.68,-0.225,active
APPL1,SID315485275,-0.09,-0.225,inactive
APPL1,SID315485276,-0.08,-0.225,inactive
